Laboratory results from article PMC4809485.
These are yes or no findings as the source states them, for the method shown. In cells and extracts the contact can be indirect. Some results given as binding are weak or reduced against the parent protein; the word gives no strength.

By UniProt entry, the sequences of proteins in these tests, tags left out.
UniProt P87072: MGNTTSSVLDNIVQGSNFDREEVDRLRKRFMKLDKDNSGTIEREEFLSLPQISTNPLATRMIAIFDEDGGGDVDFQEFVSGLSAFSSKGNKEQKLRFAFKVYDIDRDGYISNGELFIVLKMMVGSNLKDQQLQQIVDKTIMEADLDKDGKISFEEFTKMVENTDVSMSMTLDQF
UniProt Q05681: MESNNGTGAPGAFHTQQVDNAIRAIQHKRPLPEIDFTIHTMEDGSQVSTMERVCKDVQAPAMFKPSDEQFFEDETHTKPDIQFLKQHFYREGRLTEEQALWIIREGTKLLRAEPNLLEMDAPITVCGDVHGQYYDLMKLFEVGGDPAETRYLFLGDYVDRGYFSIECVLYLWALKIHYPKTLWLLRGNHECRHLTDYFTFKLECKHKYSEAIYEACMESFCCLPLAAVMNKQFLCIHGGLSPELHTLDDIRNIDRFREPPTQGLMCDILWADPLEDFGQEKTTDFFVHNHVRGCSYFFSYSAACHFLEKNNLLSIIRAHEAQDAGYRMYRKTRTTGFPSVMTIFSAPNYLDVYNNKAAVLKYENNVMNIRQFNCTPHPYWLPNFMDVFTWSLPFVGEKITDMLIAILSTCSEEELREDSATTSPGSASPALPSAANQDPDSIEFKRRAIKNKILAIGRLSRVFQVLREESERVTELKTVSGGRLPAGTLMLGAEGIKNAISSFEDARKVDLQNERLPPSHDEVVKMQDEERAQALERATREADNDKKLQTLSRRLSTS

Target: CNB-1::V5::GFP (calcineurin regulatory subunit B, tagged) (Neurospora crassa) (UniProt P87072)
Assay: co-IP; whole cell extracts (10 mg protein) of N. crassa forced heterokaryons; GFP-Trap agarose beads, overnight at 4°C; 50 mM Tris-Cl pH 7.5, 1 mM EDTA, 6 mM MgCl2; immunoblot with anti-GFP and anti-S-tag

Substance: CNA-1::S-tag::RFP (calcineurin catalytic subunit A, tagged) (from UniProt Q05681 1-558) (enzyme)
- binding: binds
